Experimental data: PubChem BioAssay AID504808 (Drosophila RNAi Screening Center, 2011)
The screen tested about 21,000 reagents; below is an unselected part of those that have a named target and a result. Of all reagents, 18 (0.084%) were called active. 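Raw counts without plate normalisation, one of two replicates; the ratio scores behind the calls were not deposited.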 The numbers tell different reagents against one gene apart. Names joined by + are all predicted targets of the reagent. Not stated in the record: the amount of reagent, the time to read-out.

Test: 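Chromatin factors that keep E2F targets switched off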 (primary screen)
Cells: Drosophila S2 cells
Reagent: long dsRNA against Drosophila genes
Read-out: 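Dual luciferase plate measurements; E2F-specific signal taken as firefly over Renilla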
Direction: E2F firefly: higher = more E2F reporter activity; Renilla normaliser: higher = more normaliser reporter signal
Rule for the call: 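Called active if the normalised E2F reporter went up by over 50%; the cutoff is arbitrary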

The opening 4 entries, to show the layout:
predicted target	reagent no.	E2F firefly, rep 1	Renilla normaliser, rep 1	outcome
CG7115	1	1.54e5	4774	inactive
l(2)34Fd (lethal (2) 34Fd)	1	79532	3835	inactive
Ucp4B (Uncoupling protein 4B)	1	1.48e5	5417	inactive
scrt (scratch)	1	66336	3467	inactive

The list itself, repeating the preview:
predicted target	reagent no.	E2F firefly, rep 1	Renilla normaliser, rep 1	outcome
CG7115	1	1.54e5	4774	inactive
l(2)34Fd (lethal (2) 34Fd)	1	79532	3835	inactive
Ucp4B (Uncoupling protein 4B)	1	1.48e5	5417	inactive
scrt (scratch)	1	66336	3467	inactive
nesd (nessun dorma)	1	88338	3755	inactive
CstF50 (Cleavage stimulation factor 50 kD subunit)	1	1969	992	inactive
CG34046 (retired record)	1	81394	2396	inactive
CG42525	1	1.26e5	4862	inactive
gus (gustavus)	1	89800	4034	inactive
gus (gustavus)	2	1.03e5	4538	inactive
Rich (RIC1 homolog)	1	69101	3568	inactive
CG8468	1	88428	3861	inactive
Ice1 (Interacts with the C terminus of ELL 1)	1	73448	4003	inactive
Mtch	1	67676	2929	inactive
Gprk2 (G protein-coupled receptor kinase 2)	1	1197	856	inactive
CG10154	1	1.30e5	7144	inactive
CG4650	1	95455	3691	inactive
ArgRS-m (Arginyl-tRNA synthetase, mitochondrial)	1	1.34e5	6054	inactive
mRpL20 (mitochondrial ribosomal protein L20)	1	1.16e5	7262	inactive
Srg2 + CG42826	1	78336	3554	inactive
Srg2 + CG42826	2	5055	263	inactive
CG30432	1	1.29e5	5692	inactive
CG34282	1	1.29e5	5864	inactive
CCT8 (Chaperonin containing TCP1 subunit 8)	1	2935	224	inactive
Ets98B (Ets at 98B)	1	1.10e5	5669	inactive
Miox (Myo-inositol oxygenase)	1	1.26e5	7714	inactive
byn (brachyenteron)	1	82144	3328	inactive
nAChRbeta3 (nicotinic Acetylcholine Receptor beta3)	1	76226	3133	inactive
Ubr3 (Ubr3 ubiquitin ligase)	1	7544	660	inactive
Ubr3 (Ubr3 ubiquitin ligase)	2	1.15e5	5225	inactive
Cpr78Cb (Cuticular protein 78Cb)	1	1.34e5	6454	inactive
ZnT49B (Zinc transporter 49B)	1	93012	3907	inactive
Msp300 (Muscle-specific protein 300 kDa)	1	1.29e5	5468	inactive
Msp300 (Muscle-specific protein 300 kDa)	2	1.35e5	5531	inactive
Msp300 (Muscle-specific protein 300 kDa)	3	1.43e5	5487	inactive
Msp300 (Muscle-specific protein 300 kDa)	4	1.35e5	5275	inactive
Msp300 (Muscle-specific protein 300 kDa)	5	1.38e5	4485	inactive
Msp300 (Muscle-specific protein 300 kDa)	6	81193	3563	inactive
Msp300 (Muscle-specific protein 300 kDa)	7	1.64e5	4934	inactive
LanA (Laminin A)	1	63644	2892	inactive
Ehbp1 (Eps15 homology domain containing protein-binding protein 1)	1	57521	2927	inactive
nrv2 (nervana 2)	1	1.33e5	5685	inactive
nrv2 (nervana 2)	2	93942	4127	inactive
CG11837	1	1694	1028	inactive
Uxt (Uxt prefoldin-like subunit)	1	1.03e5	4246	inactive
Paip1 (Poly(A) binding protein interacting protein 1)	1	62061	3120	inactive
CG6569	1	1.42e5	7121	inactive
CG14810	1	79888	2575	inactive
CG14810	2	1.10e5	4848	inactive
senju	1	1.44e5	5153	inactive
CG32563	1	1.62e5	6959	inactive
CG31089	1	1.13e5	6103	inactive
CG8543	1	87427	4202	inactive
HLH4C (Helix loop helix protein 4C)	1	1.05e5	4726	inactive
l(2)gl (lethal (2) giant larvae)	1	58875	2981	inactive
heca (headcase)	1	99271	5410	inactive
Tpl94D (Transition protein-like 94D)	1	82364	2529	inactive
CG17593	1	1.55e5	5221	inactive
Indy (I'm not dead yet)	1	74103	4200	inactive
CG3078	1	1563	908	inactive
CG15578	1	1.11e5	5006	inactive
Fib (Fibrillarin)	1	95663	4641	inactive
Amacr (Alpha-methylacyl-CoA racemase)	1	79688	3149	inactive
Enoph (Enolase-phosphatase)	1	1.38e5	5379	inactive
Trs20 (TRAPP subunit 20)	1	1.48e5	7617	inactive
Ir94f (Ionotropic receptor 94f)	1	78773	2706	inactive
Sox102F	1	1932	832	inactive
eya (eyes absent)	1	82856	3649	inactive
CG6220	1	1.01e5	4171	inactive
CG6271	1	1836	1036	inactive
Gr28b (Gustatory receptor 28b)	1	1.54e5	5967	inactive
Gr28b (Gustatory receptor 28b)	2	1.54e5	5552	inactive
IntS1 (Integrator 1)	1	1.09e5	3738	inactive
ND-49 (NADH dehydrogenase (ubiquinone) 49 kDa subunit)	1	64234	4260	inactive
CngB (Cyclic nucleotide-gated ion channel subunit B)	1	87836	3592	inactive
CG17233	1	70016	3308	inactive
tplus3a + tplus3b	1	1.17e5	4821	inactive
ND-ACP	1	1.12e5	4288	inactive
CG14823	1	66871	3739	inactive
CG17707	1	1.42e5	6928	inactive
Shc (SHC-adaptor protein)	1	1.21e5	6357	inactive
Hmgcl (3-Hydroxymethyl-3-methylglutaryl-CoA lyase)	1	1.35e5	5068	inactive
Uvrag (UV-resistance associated gene)	1	77330	3288	inactive
Lgr4 (Leucine-rich repeat-containing G protein-coupled receptor 4)	1	93953	2882	inactive
Lgr4 (Leucine-rich repeat-containing G protein-coupled receptor 4)	2	78072	2217	inactive
Lgr4 (Leucine-rich repeat-containing G protein-coupled receptor 4)	3	1.37e5	6958	inactive
Elk (Eag-like K[+] channel)	1	82213	3165	inactive
Mctp (Multiple C2 domain and transmembrane region protein)	1	1.56e5	5517	inactive
CG33465	1	1.23e5	4043	inactive
CG7290	1	1.18e5	6652	inactive
mrt (martik)	1	1.26e5	6953	inactive
Hmg-2 (High mobility group protein 2)	1	78448	3709	inactive
dx (deltex)	1	97571	4721	inactive
CG11878	1	1.26e5	6375	inactive
rgn (regeneration)	1	88494	3994	inactive
retinin	1	1.56e5	6582	inactive
CHKov1 (CHK domain ov1)	1	1.37e5	5732	inactive
CHKov1 (CHK domain ov1)	2	1.27e5	5669	inactive
CHKov1 (CHK domain ov1)	3	1.14e5	5591	inactive
CHKov1 (CHK domain ov1)	4	79133	2735	inactive
Tsc1	1	62882	3630	inactive
CG1409	1	1.07e5	4873	inactive
Atg10 + CG18853 + CG12822	1	72631	2954	inactive
mRpL12 (mitochondrial ribosomal protein L12)	1	73274	3506	inactive
Fer1 (48 related 1)	1	1.34e5	6408	inactive
Fer1 (48 related 1)	2	1.19e5	5579	inactive
CG13511	1	1.05e5	4861	inactive
